In US20110053864A1:
No constants are given. Whether binding was seen depends on the method and setting. Some entries that bind do so weakly or less than the wild type.

Protein sequences, listed by entry. Tags and fused reporters are not part of them. Residues count along the entry.
UniProt P16070, residues 21-742: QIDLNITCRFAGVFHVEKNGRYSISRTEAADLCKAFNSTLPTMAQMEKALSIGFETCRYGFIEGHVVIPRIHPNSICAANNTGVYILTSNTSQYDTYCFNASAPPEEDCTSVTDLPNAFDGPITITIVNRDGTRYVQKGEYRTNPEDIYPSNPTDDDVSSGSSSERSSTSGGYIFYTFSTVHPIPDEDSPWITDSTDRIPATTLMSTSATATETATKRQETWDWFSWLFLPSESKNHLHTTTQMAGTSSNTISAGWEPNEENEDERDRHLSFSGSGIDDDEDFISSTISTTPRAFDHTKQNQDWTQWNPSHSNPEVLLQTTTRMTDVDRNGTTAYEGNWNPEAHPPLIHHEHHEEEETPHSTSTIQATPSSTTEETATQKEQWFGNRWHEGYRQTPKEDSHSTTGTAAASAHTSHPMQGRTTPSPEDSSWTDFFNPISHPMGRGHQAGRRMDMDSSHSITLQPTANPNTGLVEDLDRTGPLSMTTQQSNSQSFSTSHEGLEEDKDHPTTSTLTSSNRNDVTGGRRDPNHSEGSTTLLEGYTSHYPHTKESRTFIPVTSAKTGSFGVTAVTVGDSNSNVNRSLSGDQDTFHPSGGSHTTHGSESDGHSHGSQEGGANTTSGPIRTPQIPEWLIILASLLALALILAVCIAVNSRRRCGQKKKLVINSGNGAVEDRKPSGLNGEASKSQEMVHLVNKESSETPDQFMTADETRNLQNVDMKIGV

How the values were obtained:
CD44 on SKOV3 cells [1] = biological target: CD44 on SKOV3 cells (UniProt P16070); experiment: crosslinking of 100 µM Å6Cbiotin to SKOV3 cells, immunoprecipitation with anti-CD44 DF1485, HRP-streptavidin blot
CD44 on SKOV3 cells [2] = biological target: CD44 on SKOV3 cells (UniProt P16070); experiment: crosslinking of 100 µM Å6Cbiotin to SKOV3 cells, immunoprecipitation with anti-CD44 DF1485, blots
CD44 on SKOV3 cells [3] = biological target: CD44 on SKOV3 cells (UniProt P16070); experiment: FACS competition on SKOV3 cells; Å6 concentration varied, competitor DF1485

Row | binding (CD44 on SKOV3 cells [1]) | binding (CD44 on SKOV3 cells [2]) | binding (CD44 on SKOV3 cells [3]) | Binder
1 | binds | binds |  | KPSSPPEE (biotin label (attachment not described)) [Å6Cbiotin]
2 |  |  | binds | KPSSPPEE (N-terminal acetyl (Ac); C-terminal amide (Am)) [Å6 peptide (Ac-KPSSPPEE-Am, SEQ ID NO:1)]
